In test [1] the target is T1, recombinant human WARP (von Willebrand factor A-domain related protein), dimer (human) (UniProt Q6PCB0).
T1 sequence: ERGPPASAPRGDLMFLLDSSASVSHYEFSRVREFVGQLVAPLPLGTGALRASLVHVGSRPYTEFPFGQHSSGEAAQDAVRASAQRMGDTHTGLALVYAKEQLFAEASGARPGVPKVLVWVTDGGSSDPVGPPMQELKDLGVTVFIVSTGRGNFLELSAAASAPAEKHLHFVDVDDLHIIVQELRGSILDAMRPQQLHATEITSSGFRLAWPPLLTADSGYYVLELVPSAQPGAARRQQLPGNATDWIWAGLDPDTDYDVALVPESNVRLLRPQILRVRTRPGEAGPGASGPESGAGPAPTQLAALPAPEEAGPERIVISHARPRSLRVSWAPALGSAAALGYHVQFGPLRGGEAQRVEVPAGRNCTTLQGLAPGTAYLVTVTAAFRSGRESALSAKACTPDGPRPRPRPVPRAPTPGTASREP
Nature of the test: ELISA; reciprocal solid-phase binding: recombinant WARP fractions (dimer, mix, multimer) coated at 5 ug/ml in TBS, collagen VI tetramers 1-30 ug/ml in TBS, detected with rabbit anti-collagen VI (Ab 7821); both purified. A general note: ELISA stands for enzyme-linked immunosorbent assay.

Test [2] has as its target T2, recombinant human WARP, multimer (human) (UniProt Q6PCB0).
T2 sequence: T1 sequence
Described as above.

Results are given in words; binding and its absence hold for the method and conditions named. For some assays here: Binding calls can cover weak binding; strength is not graded here.

We go through one substance from PMC3530481.

As for “collagen VI tetramers from bovine cornea (complex)”, the results for the binding result in test [1] and in test [2] were “binds” and “no binding (tested: 30 µg/ml)”, respectively.
